Data on 39 compounds can be found in PubChem BioAssay AID2685 (National Center for Advancing Translational Sciences (NCATS), 2010).

The nature of this experiment: qHTS Assay for Lipid Storage Modulators in Drosophila S3 Cells.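 As to cell number change: cells counted by Cell Tracker Red CMTPX staining in the red channel.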 To be noted: BODIPY lipid droplet fluorescence, 18-24 h; for cell number change: measured here: cell count max response, cells fed with added oleic acid. The gist of the method: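 Laser-scanning cytometry quantifies lipid droplet accumulation (500–530 nm total intensity; droplet/cell object ratio) in oleic acid-fed (400 uM added) Drosophila S3 cells treated with a concentration series. 20 uM Triacsin C defined 100% inhibition.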

The mark [1] stands for this setting: measured here: cell number channel AC50, cells fed with added oleic acid.
The mark [2] stands for this setting: measured here: lipid fluorescence (Fed channel) AC50, cells fed with added oleic acid.

The other results are listed elsewhere or left out. These are further read-outs of the screen, such as a control signal, another cell line or another target. No call is given for them. Compounds called inactive in the main read-out are mostly missing here. Potencies come from curve fits of mixed quality, noted in brackets.

A word on the AC50: it is the midpoint of the concentration-response curve, whichever way the signal moves. Take `CC(=O)c1cc(NC(=O)c2cccc(C(F)(F)F)c2)c(=O)oc1C`: the cell number change is -73.6%. For the same compound, under setting [1], the concentration at half-maximal activity (AC50) is 32600 nM [falling, single point]. Further, the AC50 under setting [2] was 7310 nM [falling, partial curve].

Take `CCOCCCNC(=O)c1ccc(NC(C)=O)cc1`: the cell number change worked out at 21.7%.

On to `Cc1ccc(NC(=O)CSCC(=O)N(C)Cc2ccc(Cl)c(Cl)c2)cc1`, for which the cell number change is -52.7%. Besides, the AC50 under setting [1] is 5.17 nM [falling, full curve, poor fit]. Under setting [2], the concentration at half-maximal activity (AC50) was 5.17 nM [falling, full curve, poor fit].

For the compound `COc1cc(/C=N/n2c(COc3ccccc3)n[nH]c2=S)cc(Br)c1O`, the cell number change is 10.3%. The concentration at half-maximal activity (AC50) under setting [2] was 2590 nM [rising, partial curve].

As to `CCCCn1c(N)c(N(CC(C)C)C(=O)c2c(-c3ccccc3)noc2C)c(=O)[nH]c1=O`, the cell number change was determined as 16.5%. Moreover, under setting [2], the half-maximal activity concentration (AC50) was 164 nM [falling, full curve, poor fit].

On to `Cc1ccc(C(=O)Nc2nc3nc(-c4ccccc4)cc(=O)n3[nH]2)cc1`, for which the cell number change is 10.1%. Moreover, the half-maximal activity concentration (AC50) under setting [2] was 2060 nM [falling, partial curve, poor fit].

For the compound `CCN(CC)c1ccc(/C=N/N=C(c2ccccc2)c2ccccc2)c(O)c1`, the cell number change was -17.2%. Under setting [2], the AC50 is 2310 nM [rising, partial curve].

Consider `O=C1c2ccccc2C(=O)N1CCCCSc1nnc(-c2ccc(OC(F)F)cc2)o1`, for which the cell number change is -4.1%. Further, the AC50 under setting [2] was 6510 nM [rising, partial curve].

`O=C(NCCCN1CCN(c2ccccc2F)CC1)Nc1ccccc1[N+](=O)[O-]`: the cell number change was -4.73%. Further, under setting [2], the AC50 was 4110 nM [falling, single point].

Regarding `O=C(Nc1ccccc1)c1cccnc1N1CCCC1`, the cell number change was found to be 14.5%. For the same compound, under setting [2], the AC50 was 411 nM [falling, partial curve, poor fit].

As for `Cc1nc2oc3ccc(F)cc3c(=O)c2cc1C(=O)NC(C)(C)C`, the AC50 under setting [1] is 2910 nM [falling, single point].

Consider `Cn1c(C(=O)N2CCC(C(N)=O)CC2)cc2c(=O)n(C)c3ccccc3c21`, for which the cell number change was -9.09%. Under setting [2], the AC50 is 731 nM [rising, single point].

For the compound `COCCN(C(=O)c1ccc(C)o1)c1c(N)n(CC(C)C)c(=O)[nH]c1=O`, the cell number change is -49.7%. Moreover, under setting [1], the AC50 was 920 nM [falling, full curve]. Moreover, the AC50 under setting [2] was 920 nM [falling, full curve].

As for `CCOc1cc(C(=O)Nc2ccc(S(=O)(=O)N3CCCCC3)cc2)ccc1OCC(=O)N1CCOCC1`, the cell number change came out at 45.4%. Moreover, the AC50 under setting [1] is 11600 nM [rising, single point].

Turning to `Cc1nc2scc(C)n2c(=O)c1S(=O)(=O)Nc1ccc(OC(F)(F)F)cc1`, the cell number change was -41.2%. Further, the AC50 under setting [1] was 23100 nM [falling, single point]. Moreover, the AC50 under setting [2] is 23100 nM [falling, single point].

As to `CCc1cccc(NC(=O)CCc2c(C)nn(-c3ccc(N4CCOCC4)nn3)c2C)c1`, the cell number change is -3.54%.

For `COc1ccccc1C(=O)Oc1ccc(C(C)(C)C)cc1`, the AC50 under setting [1] was 130 nM [falling, full curve] and the AC50 under setting [2] was 164 nM [falling, full curve, poor fit].

As for `N#Cc1ccc2ccn(CC(=O)NC3CCCCCC3)c2c1`, the cell number change turned out to be 19.6%. Moreover, the AC50 under setting [1] is 366 nM [rising, single point].

As to `O=C(NCC(F)(F)F)N1CCOCC1`, the cell number change amounted to 4.57%.

As to `CC(C)CC(C(=O)NC(=O)NCc1ccccc1)N1C(=O)c2ccccc2C1=O` (centres undefined), the cell number change turned out to be 4.09%. Also, under setting [2], the AC50 is 4610 nM [falling, partial curve, poor fit].

On to `O=C(CN1C(=O)COc2ccccc21)N1CCN(C2CCCCC2)CC1`, for which the cell number change was determined as 12%. The AC50 under setting [2] was 3660 nM [rising, partial curve].

With `COc1ccc(C(=O)N(C)C2CCCCC2)cc1OC1CCN(C(C)C)CC1`, the cell number change stood at 17.6%.

With `C=CCSc1nc2ccccc2c(=O)n1Cc1ccccc1`, the cell number change was determined as 60.6%. Besides, the AC50 under setting [1] was 29100 nM [rising, single point].

With `O=C(O)COCC(=O)Nc1ccc(-n2nc(C(F)(F)F)cc2-c2cccs2)cc1`, the cell number change is -20.1%. Besides, the AC50 under setting [1] was 184 nM [falling, full curve, poor fit]. Moreover, the AC50 under setting [2] was 4610 nM [falling, partial curve, poor fit].

As to `O=C(NC1CC2CCCC(C1)N2C(=O)Nc1ccccc1F)C1CC1` (centres undefined), the cell number change is 14.6%.

Turning to `Clc1ccc(-c2cc3ccccc3[nH]2)cc1`, the cell number change came to 2.64%. For the same compound, the concentration at half-maximal activity (AC50) under setting [2] was 32600 nM [falling, single point].

`O=C(COc1ccccc1)Nc1ccc(C(=O)N2CCCC2)cc1`: the cell number change was -0.54%. Moreover, the half-maximal activity concentration (AC50) under setting [2] is 580 nM [rising, single point].

On to `CCN(CC(=O)Nc1cc(Cl)ccc1C)C(=O)C1COc2ccccc2O1` (centres undefined), for which the cell number change was -23.1%. Further, the AC50 under setting [2] is 6510 nM [falling, single point].

For the compound `CC(c1nnc(SCn2nnc3ccccc3c2=O)n1-c1ccc(Cl)cc1)N(C)C` (centres undefined), the cell number change worked out at 9.07%. Besides, the AC50 under setting [2] was 5170 nM [rising, full curve].

As to `CCc1ccccc1N1C(=O)C2CC=CCC2C1=O` (centres undefined), the cell number change was found to be 2.38%.

As for `O=C(O)C1Cc2ccccc2CN1S(=O)(=O)c1ccc(Cl)cc1` (centres undefined), the AC50 under setting [2] is 29100 nM [rising, single point].

Regarding `CCCCN(C)Cc1cc(=O)oc2ccc3ccccc3c12`, the cell number change came out at 4.26%.

With `Cc1cc(=O)nc2c3ccccc3n(CC(=O)NCCC3=CCCCC3)n12`, the cell number change was -26.6%. In addition, the AC50 under setting [2] was 8200 nM [falling, partial curve].

Take `CC(=O)Nc1cc(C(=O)OCc2cccc([N+](=O)[O-])c2)ccc1C`: the cell number change worked out at 19.8%. For the same compound, the AC50 under setting [2] is 6.51 nM [rising, full curve, poor fit].

Regarding `O=C(O)CN1C(=O)/C(=C/c2ccc(SCc3ccccc3)o2)SC1=S`, the AC50 under setting [1] is 820 nM [rising, single point] and the AC50 under setting [2] is 580 nM [rising, single point].

`CC(C)Oc1ccc(OCCSc2nc3ccccc3n2CC(=O)O)cc1`: the cell number change came to 16.4%. Besides, the AC50 under setting [2] was 580 nM [falling, single point].

As to `N#C/C(=C/c1cn(-c2ccccc2)nc1-c1cccc(OCc2ccccc2)c1)C(=O)NCCCn1ccnc1`, the cell number change was 11.7%. In addition, the AC50 under setting [1] was 6510 nM [rising, single point].

In the case of `CC1CC(C)CN(c2nc3c(c(=O)n(C)c(=O)n3C)n2CCSc2ncccn2)C1` (centres undefined), the cell number change was found to be 26.7%. For the same compound, the AC50 under setting [2] is 6510 nM [rising, single point].

Turning to `Cc1ccc(OCc2nc(-c3ccccn3)no2)c(Br)c1`, the cell number change is 0.195%. Further, the AC50 under setting [2] was 651 nM [rising, partial curve].
